No constants are given. Whether binding was seen depends on the method and setting. Some results given as binding are weak or reduced against the parent protein; the word gives no strength.
How the values were obtained:
[1] = biological target: polypeptide encoded by the PERP gene, endogenous, on human cancer cell lines (human) (UniProt Q96FX8); assay: flow cytometry on Colo 205 cells
[2] = biological target: polypeptide encoded by the PERP gene, endogenous, on human cancer cell lines (human) (UniProt Q96FX8); assay: flow cytometry on human cancer cell lines, culture supernatant
[3] = biological target: polypeptide encoded by the PERP gene, endogenous, on human cancer cell lines (human) (UniProt Q96FX8); assay: flow cytometry on PC9, NCI-H69, Capan-2 and BxPC-3 cells, 10 µg/mL

B1: anti-PERP mouse antibody KM3411 (antibody, V domains shown)
VH: DVQLQESGPGLVKPSQSLSLTCTVTGFSITTEYAWNWIRQFPGNRLEWMGYIGYTGRTNYSPSLKSRISITRDTSKNQFFLQLNSVTTEDTATYYCTRMDYWGQGTSVTVSS
VL: QIVLIQSPVIMSASPGEKVTITCSASSSVSYMHWFQQKPGTSPKLWIYSTSNLASGVPARFSGSGSGTSYSLTISRMEAEDAATYYCQQRSSYPPTFGAGTKLELK
binding [1]: binds
binding [2]: binds

B2: anti-PERP chimeric antibody KM3481 (antibody, V domains shown)
VH: DVQLQESGPGLVKPSQSLSLTCTVTGFSITTEYAWNWIRQFPGNRLEWMGYIGYTGRTNYSPSLKSRISITRDTSKNQFFLQLNSVTTEDTATYYCTRMDYWGQGTSVTVSS
VL: QIVLIQSPVIMSASPGEKVTITCSASSSVSYMHWFQQKPGTSPKLWIYSTSNLASGVPARFSGSGSGTSYSLTISRMEAEDAATYYCQQRSSYPPTFGAGTKLELK
binding [3]: binds
